Laboratory results: patent US20260115209A1, “COMBINATION THERAPY INCLUDING COX-2 INHIBITOR FOR THE TREATMENT OF CANCER” (THE REGENTS OF THE UNIVERSITY OF CALIFORNIA, priority 2022, published 2026)
For part of these data: At least one compound was matched to its structure with a doubt left. Some results were stated once for a whole list of compounds, not compound by compound.

Experiments:
Format in all cases: cell-based
WiDr cells = assay: Cell viability assay, two-drug combinations with a BRAF inhibitor, combination index; settings: SRC inhibitor combined with the BRAF inhibitor (vemurafenib), Bliss model, CI>0 = synergy, FIG. 2A
ERK1/2 = assay: Western blot of phospho-ERK rebound; settings: 8 BRAF^V600E CRC cell lines, up to 72 h; dasatinib added to BRAFi; FIG. 11A, 11B
[1] = test system: beta-catenin target genes (MYC, AXIN2, ASCL2, S100A6, LEF1, NOTCH2, SP5); assay: qRT-PCR of beta-catenin target genes; settings: dasatinib added to BRAFi, in comparison to BRAFi or BRAFi+EGFRi treated cells; FIGS. 4B, 4C

SMILES	combination index (CI) score (WiDr cells)	rebound of ERK phosphorylation (ERK1/2)	mRNA levels of beta-catenin target genes [1]
CN1CCN(CCOc2cc(OC3CCOCC3)c3c(Nc4c(Cl)ccc5c4OCO5)ncnc3c2)CC1 [saracatinib, N-(5-chioro-1,3-benzodioxol-4-yl)-7-[2-(4-methylpiperazin-1-yl)ethoxy]-5-(oxan-4-yloxy)quinazolin-4-amine]	> 2.8	–	–
Cc1nc(Nc2ncc(C(=O)Nc3c(C)cccc3Cl)s2)cc(N2CCN(CCO)CC2)n1 [dasatinib, N-(2-chloro-6-mnethylphenyl)-2-[[6-[4-(2-hydroxyethyl)piperazin-1-yl]-2-methylpyrimidin-4-yl]amino]-1,3-thiazole-5-carboxamide]	–	did not significantly impact	significant decrease
